Measured values taken from PubChem BioAssay AID330 (DTP/NCI, 2004).
The list is a part of this screen's results and no random one: it gathers tests that were run many times, whatever their T/C, doses with no T/C, and many T/C values between a quarter and a half above the control. Further doses and runs are listed elsewhere. T/C gives the treated animals as a percentage of the vehicle group. Some doses have a count of surviving animals in place of a T/C: the source holds a T/C of zero for them, seemingly a mark for toxic or unscored doses. Some doses without a T/C left all or most animals alive at the check, yet need not have been tolerated: survival well below the control is almost never listed, so the zero probably covers shortened survival too. Survivors were counted at the toxicity check, usually on the fifth day, unless a day is given; later deaths do not show. Schedules are NCI's codes, taken here to give the interval after Q, in days (D) or hours (H), and the number of doses after X. Some entries hold several experiments; the results are listed from low to high. For survival time, the PubChem record calls one and a half times the control and up active, and a quarter to a half above the control has no call in these data; cut-offs in other NCI protocols can differ. Some T/C values are followed by the survivors on the day toxicity was checked, most often the fifth; where none is given, no animal had died by that day.

System: P388 leukemia ip, CD2F1 mice, survival T/C
Assay: NCI In Vivo Anticancer Drug Screen. Data for tumor model P388 Leukemia (intraperitoneal) in CD2F1 (CDF1) mice
Conditions: T/C endpoint: median survival time, higher T/C = longer survival
[1] = dose: 400.0 mg/kg/injection, schedule: Q04DX003 (ip), vehicle: saline
[2] = dose: 50.0 mg/kg/injection, schedule: Q01DX009 (ip), vehicle: saline with Tween-80
[3] = dose: 100.0 mg/kg/injection, schedule: Q01DX009 (ip), vehicle: saline with Tween-80
[4] = dose: 200.0 mg/kg/injection, schedule: Q01DX009 (ip), vehicle: saline with Tween-80

In the case of `NS(=O)(=O)c1ccc(N=NC2Sc3nc4ccccc4n3C2=O)cc1` (configuration not stated), the survivor count (dose: 240.0 mg/kg/injection, schedule: Q01DX005 (ip), vehicle: Klucel (hydroxypropylcellulose) (HPC)) was 5 of 6.
With `C[n+]1cc2cc3c(cc2c2ccccc21)OCO3` the T/C (dose: 3.13 mg/kg/injection, schedule: Q01DX009 (ip), vehicle: water) was 126 % of control, the T/C (dose: 6.25 mg/kg/injection, schedule: Q01DX009 (ip), vehicle: water) was 129 % of control and the T/C (dose: 12.5 mg/kg/injection, schedule: Q01DX009 (ip), vehicle: water) was 131 and 135 % of control. The T/C (dose: 18.8 mg/kg/injection, schedule: Q01DX009 (ip), vehicle: water) was 144 % of control, the survivor count (dose: 50.0 mg/kg/injection, schedule: Q01DX009 (ip), vehicle: water) was 6 of 6 and the survivor count (dose: 100.0 mg/kg/injection, schedule: Q01DX009 (ip), vehicle: water) was 0 of 6. For the same compound, the survivor count (dose: 200.0 mg/kg/injection, schedule: Q01DX009 (ip), vehicle: water) was 0 of 6.
In the case of `CN(C)[C@@H]1C(=O)C(C(N)=O)=C(O)[C@@]2(O)C(=O)C3=C(O)c4c(O)ccc(Cl)c4[C@@](C)(O)[C@H]3C[C@@H]12`, the survivor count [1] was 0 of 6.
In the case of `O=C(O)c1ccccc1C(=O)O.[Cu+2].[NH-]CC[NH-]`, the survivor count (dose: 25.0 mg/kg/injection, schedule: Q04DX002 (ip), vehicle: saline with Tween-80) was 0 of 6, the survivor count (dose: 50.0 mg/kg/injection, schedule: Q04DX002 (ip), vehicle: saline with Tween-80) was 0 of 6 and the survivor count (dose: 100.0 mg/kg/injection, schedule: Q04DX002 (ip), vehicle: saline with Tween-80) was 0 of 6.
`Cc1cc2c(cc1C)NC1C(=O)C(c3ccc(Cl)c(Cl)c3)OC1=N2` (configuration not stated) was tested, and the survivor count (dose: 60.0 mg/kg/injection, schedule: Q01DX005 (ip), vehicle: Klucel (hydroxypropylcellulose) (HPC)) was 6 of 6 and the survivor count (dose: 120.0 mg/kg/injection, schedule: Q01DX005 (ip), vehicle: Klucel (hydroxypropylcellulose) (HPC)) was 6 of 6.
With `CC(CN=Cc1ccccc1O)N=Cc1ccccc1O.[Zn]` (configuration not stated) the survivor count [2] was 2 of 6 and 4 of 6, the survivor count [3] was 0 of 6 and the survivor count [4] was 0 of 6.
With `Cn1c(-c2ccc(/C=N/N=C(\N)N/N=C/c3ccc(-c4c[n+]5ccsc5n4C)cc3)cc2)c[n+]2ccsc12` the survivor count (dose: 0.5 mg/kg/injection, schedule: Q01DX005 (ip), vehicle: saline) was 0 of 6, the survivor count (dose: 1.0 mg/kg/injection, schedule: Q01DX005 (ip), vehicle: saline) was 0 of 6 and the survivor count (dose: 2.0 mg/kg/injection, schedule: Q01DX005 (ip), vehicle: saline) was 0 of 6. For the same compound, the survivor count (dose: 4.0 mg/kg/injection, schedule: Q01DX005 (ip), vehicle: saline) was 0 of 6, the survivor count (dose: 7.5 mg/kg/injection, schedule: Q01DX005 (ip), vehicle: saline) was 0 of 6 and the survivor count (dose: 15.0 mg/kg/injection, schedule: Q01DX005 (ip), vehicle: saline) was 0 of 6. The survivor count (dose: 30.0 mg/kg/injection, schedule: Q01DX005 (ip), vehicle: saline) was 0 of 6, the survivor count (dose: 60.0 mg/kg/injection, schedule: Q01DX005 (ip), vehicle: saline) was 0 of 6 and the survivor count (dose: 120.0 mg/kg/injection, schedule: Q01DX005 (ip), vehicle: saline) was 0 of 6. For the same compound, the survivor count (dose: 240.0 mg/kg/injection, schedule: Q01DX005 (ip), vehicle: saline) was 0 of 6.
`COc1ncnc2c1ccn2C1OC(CO)C(O)C1O` (configuration not stated) was tested, and the survivor count (dose: 25.0 mg/kg/injection, schedule: Q01DX005 (ip), vehicle: Klucel (hydroxypropylcellulose) (HPC)) was 4 of 6, the survivor count (dose: 50.0 mg/kg/injection, schedule: Q01DX005 (ip), vehicle: Klucel (hydroxypropylcellulose) (HPC)) was 6 of 6 and the survivor count (dose: 100.0 mg/kg/injection, schedule: Q01DX005 (ip), vehicle: Klucel (hydroxypropylcellulose) (HPC)) was 0 of 6. The survivor count (dose: 200.0 mg/kg/injection, schedule: Q01DX005 (ip), vehicle: Klucel (hydroxypropylcellulose) (HPC)) was 0 of 6.
With `S=C(Nc1cc(Cl)c(Cl)cc1Cl)SCc1ccccc1` the survivor count (dose: 200.0 mg/kg/injection, schedule: Q01DX009 (ip), vehicle: suspension in saline) was 1 of 6.
In the case of `Cc1cc2nc3ccc(O)cc3[n+](C)c2cc1N`, the T/C [2] was 131 % of control, the T/C [3] was 127 % of control and the survivor count [4] was 0 of 6.
With `C[n+]1ccc(-c2cc[n+](C)cc2)cc1` the survivor count (dose: 6.25 mg/kg/injection, schedule: Q01DX009 (ip), vehicle: saline) was 5 of 6 and 6 of 6, the survivor count (dose: 12.5 mg/kg/injection, schedule: Q01DX009 (ip), vehicle: saline) was 4 of 6 and the survivor count (dose: 25.0 mg/kg/injection, schedule: Q01DX009 (ip), vehicle: saline) was 1 of 6 and 3 of 6. For the same compound, the survivor count (dose: 50.0 mg/kg/injection, schedule: Q01DX009 (ip), vehicle: saline) was 0 of 6 and 6 of 6, the survivor count (dose: 100.0 mg/kg/injection, schedule: Q01DX009 (ip), vehicle: saline) was 0 of 6 and 6 of 6 and the survivor count (dose: 200.0 mg/kg/injection, schedule: Q01DX009 (ip), vehicle: saline) was 0 of 6. For the same compound, the survivor count (dose: 400.0 mg/kg/injection, schedule: Q01DX009 (ip), vehicle: saline) was 0 of 6.
In the case of `Cc1nc(C#N)c(=N)n(O)c1Cl`, the T/C (dose: 12.5 mg/kg/injection, schedule: Q01DX009 (ip), vehicle: saline with Tween-80) was 127 % of control [5 of 6 alive], the T/C (dose: 25.0 mg/kg/injection, schedule: Q01DX009 (ip), vehicle: saline with Tween-80) was 133 % of control and the survivor count [2] was 4 of 6.
For `Brc1ccc(C[N+]23CN4CN(CN(C4)C2)C3)cc1`, the T/C [4] was 140 % of control and the survivor count [1] was 2 of 6.
